Legend:
[1] = test system: K562-R cells; assay: Viability assay (Annexin V/7AAD), K562-R; format: cell-based; settings: Homo sapiens, K-562R, read-out: TKI viability assay IC50
Protocol: (§1) Cells were removed from drug-containing culture medium, washed and re-cultured in fresh media (with testing drug) for 72 hours. Cells then were stained with 7-Amino-actinomycin D (7AAD) and Annexin V-PE. Flow cytometry (BD LSRFortessaTM X-20 with high-throughput platform) was performed to determine cell viability: cells stained positive for Annexin V-PE and 7AAD were considered to be apoptotic or dead respectively. The data were analysed using FCS Express software (DeNovo Software, Los Angeles, California, USA).

[2] = test system: K562 DOX 55D-R cells; assay: cells; settings: Homo sapiens, K562, read-out: TKI viability assay IC50
Protocol: as §1

[3] = test system: K562 T315I-R cells; assay: cells; settings: Homo sapiens, K562, read-out: TKI viability assay IC50
Protocol: as §1

[4] = test system: K562 DOX-R cells; assay: Viability assay (Annexin V/7AAD), K562 DOX-R; format: cell-based; settings: Homo sapiens, read-out: TKI viability assay IC50
Protocol: as §1

Measured: IC50

Cc1ccc(NC(=O)c2ccc(CN3CCN(C)CC3)cc2)cc1Nc1nccc(-c2cccnc2)n1 [imatinib]
> 2 µM: all assays above

— PMC6205183 (Oncotarget, 2018)
